1 substance from patent publication US6528618B1 (Yeda Research and Development Co. Ltd., priority 1997, dated 2003) can be followed below.

This series is described as follows: general procedure: Fmoc solid-phase peptide synthesis; Wang resin; PyBOP/NMM. Particulars: whole synthesis, scale 12.5 μmol.

Take “Glu62-Ile-Leu-Ile-Phe-Trp-Ser-Lys-Asp-Ile-Gly-Tyr-Ser-Phe-Thr76”: the isolated mass result was “approx. 15 mg”. For the same substance, under “220 nm”, the “final HPLC purity” value is “above 98% pure”.
